According to article PMC12210380:
These are yes or no findings as the source states them, for the method shown. Binding seen in cells or lysates may run through a third protein. Some results given as binding are weak or reduced against the parent protein; the word gives no strength. Each block holds one substance with its values, some of them ahead of it.

Sequences of proteins named here, by UniProt entry; tags and fusion partners are left off.
UniProt P62491: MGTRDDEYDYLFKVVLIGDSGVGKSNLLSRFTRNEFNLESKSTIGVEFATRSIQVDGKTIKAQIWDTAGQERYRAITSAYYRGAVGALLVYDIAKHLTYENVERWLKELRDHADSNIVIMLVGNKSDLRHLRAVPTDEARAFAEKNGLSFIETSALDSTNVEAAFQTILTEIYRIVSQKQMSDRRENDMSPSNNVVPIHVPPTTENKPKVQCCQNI
UniProt O75608: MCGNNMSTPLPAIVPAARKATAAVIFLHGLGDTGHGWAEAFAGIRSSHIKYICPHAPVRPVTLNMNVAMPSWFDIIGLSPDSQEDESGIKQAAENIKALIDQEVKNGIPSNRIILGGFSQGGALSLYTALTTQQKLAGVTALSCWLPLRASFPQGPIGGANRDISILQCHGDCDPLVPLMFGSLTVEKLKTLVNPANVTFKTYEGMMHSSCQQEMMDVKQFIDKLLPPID
UniProt P16671: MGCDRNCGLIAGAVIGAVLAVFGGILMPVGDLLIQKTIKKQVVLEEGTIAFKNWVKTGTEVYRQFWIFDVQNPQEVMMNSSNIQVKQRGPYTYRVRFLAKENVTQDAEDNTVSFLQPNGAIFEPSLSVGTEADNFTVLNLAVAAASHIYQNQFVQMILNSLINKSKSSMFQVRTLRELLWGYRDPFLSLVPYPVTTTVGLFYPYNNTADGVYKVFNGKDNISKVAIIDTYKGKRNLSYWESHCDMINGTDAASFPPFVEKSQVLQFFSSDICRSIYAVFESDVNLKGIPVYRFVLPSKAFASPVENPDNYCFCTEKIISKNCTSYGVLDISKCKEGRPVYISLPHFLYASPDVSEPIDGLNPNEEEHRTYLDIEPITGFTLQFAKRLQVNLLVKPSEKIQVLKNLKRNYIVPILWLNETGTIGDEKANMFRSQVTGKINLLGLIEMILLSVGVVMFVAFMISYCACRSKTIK

Experiments:
[1] = target: Rab11a (human (endogenous in HPCs)) (UniProt P62491); experiment: co-IP; podocytes under high glucose; whole-cell extracts, immunoprecipitation overnight at 4°C, Western blot; bait not given
[2] = target: flag-tagged wild-type APT1 (acyl-protein thioesterase 1) (UniProt O75608); experiment: co-IP; reverse: podocytes transfected with myc-CD36 and flag-APT1 plasmids, with or without high glucose; immunoprecipitated with a flag antibody, Western blot
[3] = target: myc-tagged wild-type CD36 (Cluster of Differentiation 36) (UniProt P16671); experiment: co-IP; podocytes transfected with myc-CD36 and flag-APT1 plasmids, with or without high glucose (30 mM, 24 h); whole-cell extracts immunoprecipitated by anti-myc antibody overnight at 4°C, Western blot

binding [1]: binds
Substance: CD36 (Cluster of Differentiation 36) in podocytes (from UniProt P16671 1-472) (receptor)

Substance: myc-tagged wild-type CD36 (Cluster of Differentiation 36) (from UniProt P16671 1-472) (receptor)
binding [2]: binds

Substance: flag-tagged wild-type APT1 (acyl-protein thioesterase 1) (from UniProt O75608 1-230) (enzyme)
binding [3]: binds
